Test results as given in the supplement of paper PMC12823440, “Inhibitors supercharge kinase turnover through native proteolytic circuits” (Nature, 2025).
Counter-ions that a name gives are not always drawn. Some of the results follow. Hit calls seldom repeat between salt and free forms of one compound.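 Kinases were expressed as nanoluciferase fusions in K562 cells and luminescence was read every 4 h between 2 and 18 h as percent of control, DMSO set to 100% and a positive control to 0%. A time point counts as decreased when the signal drops significantly (2 sigma). The hit call is the authors' own, does not follow from the count of time points alone, and its rule is not shown.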

By UniProt entry, the sequences of proteins in these tests, tags left out. Where a name states a change or a piece, a line headed by the entry shows the natural chain unless it says otherwise.
UniProt P42356, whole entry, looked up: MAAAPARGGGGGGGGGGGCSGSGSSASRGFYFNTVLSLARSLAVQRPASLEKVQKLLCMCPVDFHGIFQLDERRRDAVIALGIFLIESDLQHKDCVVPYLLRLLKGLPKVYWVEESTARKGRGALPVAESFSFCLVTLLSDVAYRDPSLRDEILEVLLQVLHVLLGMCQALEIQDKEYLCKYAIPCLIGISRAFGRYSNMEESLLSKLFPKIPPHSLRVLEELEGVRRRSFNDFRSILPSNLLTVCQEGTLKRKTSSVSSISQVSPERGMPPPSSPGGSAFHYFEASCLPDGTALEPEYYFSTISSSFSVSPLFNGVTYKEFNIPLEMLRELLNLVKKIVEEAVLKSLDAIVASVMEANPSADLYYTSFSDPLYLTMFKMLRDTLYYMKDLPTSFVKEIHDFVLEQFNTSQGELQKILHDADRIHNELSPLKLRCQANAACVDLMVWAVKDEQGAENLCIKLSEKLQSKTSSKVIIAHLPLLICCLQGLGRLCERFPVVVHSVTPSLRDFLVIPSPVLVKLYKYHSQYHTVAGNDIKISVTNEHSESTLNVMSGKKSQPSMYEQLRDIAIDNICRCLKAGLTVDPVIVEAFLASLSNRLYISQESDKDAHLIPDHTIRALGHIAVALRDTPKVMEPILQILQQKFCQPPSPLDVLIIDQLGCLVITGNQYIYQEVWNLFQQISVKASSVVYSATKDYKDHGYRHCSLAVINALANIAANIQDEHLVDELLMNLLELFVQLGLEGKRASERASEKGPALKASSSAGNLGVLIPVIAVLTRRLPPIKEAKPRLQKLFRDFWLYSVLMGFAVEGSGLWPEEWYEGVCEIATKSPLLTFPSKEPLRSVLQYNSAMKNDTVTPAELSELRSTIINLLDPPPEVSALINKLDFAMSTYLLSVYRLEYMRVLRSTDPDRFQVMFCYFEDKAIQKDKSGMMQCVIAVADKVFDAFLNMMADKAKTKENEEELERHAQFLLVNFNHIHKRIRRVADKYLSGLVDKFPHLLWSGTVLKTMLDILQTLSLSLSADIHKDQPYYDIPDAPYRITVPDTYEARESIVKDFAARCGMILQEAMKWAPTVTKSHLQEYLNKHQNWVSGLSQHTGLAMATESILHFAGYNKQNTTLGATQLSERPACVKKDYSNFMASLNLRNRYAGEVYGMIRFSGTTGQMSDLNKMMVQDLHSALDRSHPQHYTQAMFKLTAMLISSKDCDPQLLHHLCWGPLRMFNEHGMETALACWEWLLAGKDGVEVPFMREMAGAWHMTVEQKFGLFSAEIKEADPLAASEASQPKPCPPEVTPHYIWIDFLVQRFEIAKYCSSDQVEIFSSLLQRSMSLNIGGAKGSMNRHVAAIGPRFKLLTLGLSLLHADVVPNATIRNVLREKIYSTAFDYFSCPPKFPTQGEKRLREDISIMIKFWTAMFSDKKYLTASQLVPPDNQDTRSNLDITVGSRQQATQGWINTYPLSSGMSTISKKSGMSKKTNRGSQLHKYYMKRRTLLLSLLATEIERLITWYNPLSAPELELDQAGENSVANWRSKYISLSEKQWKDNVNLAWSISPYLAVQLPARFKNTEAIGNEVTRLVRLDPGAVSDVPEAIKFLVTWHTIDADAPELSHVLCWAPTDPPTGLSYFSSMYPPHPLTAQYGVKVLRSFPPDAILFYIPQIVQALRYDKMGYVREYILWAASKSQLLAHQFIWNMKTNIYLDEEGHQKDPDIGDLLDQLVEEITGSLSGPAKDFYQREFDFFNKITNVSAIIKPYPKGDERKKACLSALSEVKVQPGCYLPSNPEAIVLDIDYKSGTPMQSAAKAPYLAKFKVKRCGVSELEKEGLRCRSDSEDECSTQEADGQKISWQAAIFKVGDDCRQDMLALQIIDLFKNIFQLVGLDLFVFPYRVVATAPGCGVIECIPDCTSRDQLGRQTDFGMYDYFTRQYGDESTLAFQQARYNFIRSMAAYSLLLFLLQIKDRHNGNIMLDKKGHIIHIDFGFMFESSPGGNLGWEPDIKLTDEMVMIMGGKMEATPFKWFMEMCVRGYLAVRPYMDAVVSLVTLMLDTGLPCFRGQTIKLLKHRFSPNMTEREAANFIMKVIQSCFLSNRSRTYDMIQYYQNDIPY
UniProt Q9UBF8: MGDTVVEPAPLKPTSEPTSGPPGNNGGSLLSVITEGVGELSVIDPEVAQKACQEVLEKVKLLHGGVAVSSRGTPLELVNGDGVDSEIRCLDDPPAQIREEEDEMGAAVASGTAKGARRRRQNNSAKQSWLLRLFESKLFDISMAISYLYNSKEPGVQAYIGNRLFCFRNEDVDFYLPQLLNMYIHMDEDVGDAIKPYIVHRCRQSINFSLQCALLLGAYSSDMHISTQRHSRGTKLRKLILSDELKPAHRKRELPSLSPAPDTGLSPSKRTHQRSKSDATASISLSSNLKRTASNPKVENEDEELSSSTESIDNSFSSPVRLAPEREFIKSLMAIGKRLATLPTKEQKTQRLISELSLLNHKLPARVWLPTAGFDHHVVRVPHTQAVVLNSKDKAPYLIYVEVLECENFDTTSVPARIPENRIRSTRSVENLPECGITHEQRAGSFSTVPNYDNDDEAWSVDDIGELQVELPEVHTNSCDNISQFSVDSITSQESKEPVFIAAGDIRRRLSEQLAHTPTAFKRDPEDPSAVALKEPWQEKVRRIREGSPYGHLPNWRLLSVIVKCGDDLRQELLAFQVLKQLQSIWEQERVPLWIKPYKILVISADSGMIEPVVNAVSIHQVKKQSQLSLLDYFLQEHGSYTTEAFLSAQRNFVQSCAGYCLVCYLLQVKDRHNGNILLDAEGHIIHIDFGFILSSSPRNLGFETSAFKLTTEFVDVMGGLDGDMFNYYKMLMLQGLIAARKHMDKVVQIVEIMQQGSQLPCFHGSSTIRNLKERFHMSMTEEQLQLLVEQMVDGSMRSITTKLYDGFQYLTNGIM

What follows are compounds tested against PIK4CA (UniProt P42356) (assay: kinase-Nluc reporter destabilization hit call (1 = scored as downregulated) (binary); higher = compound decreases kinase abundance). Settings: K562; 2-18 h.

SMILES	kinase-Nluc reporter destabilization hit call
Cc1cccc(-c2[nH]c(C(C)(C)C)nc2-c2ccc3c(c2)OCO3)n1 (2.5 µM)	inactive: 0
Cc1cccc(Cn2nc(C)c3c(NC(=O)c4csc5c(N)ncnc45)cccc32)n1 (10 µM)	inactive: 0
CC[C@@H]1CN(C(=O)NCC(F)(F)F)C[C@@H]1c1cnc2cnc3[nH]ccc3n12 [Upadacitinib] (10 µM)	inactive: 0
CNS(=O)(=O)C[C@H]1CC[C@H](N(C)c2[nH]cnc3nccc2-3)CC1 [Oclacitinib (maleate)] (10 µM)	inactive: 0
COc1cc(-c2cnc(N)c(-c3ccc(NC(=O)c4cn(CC5CCOCC5)cc(-c5ccc(C)cn5)c4=O)cc3F)c2)ccc1OC[C@H]1COCCO1 [DS-1205b (free base)] (10 µM)	inactive: 0

What follows are compounds tested against PIK4CB (UniProt Q9UBF8) in the same assay as above. Settings: K562; 2-18 h.

SMILES	kinase-Nluc reporter destabilization hit call
C=CC(=O)N1CCC[C@@H](n2c(=O)n(-c3ccc(Oc4ccccc4)cc3)c3c(N)nccc32)C1 [Tolebrutinib] (10 µM)	inactive: 0
C[C@]1(O)C[C@@](N)(c2ccc(-c3nc4n(c3-c3ccccc3)COc3ccncc3-4)cc2)C1 [TAS-117 (hydrochloride)] (10 µM)	inactive: 0
CCOC(=O)C1=C[C@]2(CC)CCCN3CCc4c(n1c1ccccc41)[C@@H]32 [Vinpocetine] (10 µM)	inactive: 0
CC(C)(C)NS(=O)(=O)c1cncc(-c2cc(F)c3nc(N)nn3c2)c1 (10 µM)	inactive: 0
CC(C)(C)c1ccc(C(=O)Nc2cn3cc(-n4ccnc4)ccc3n2)cc1 (10 µM)	inactive: 0
Cc1nc(NC(=O)N2CCC[C@H]2C(N)=O)sc1-c1csc(C(C)(C)C)n1 (10 µM)	inactive: 0
N#Cc1cn([C@@H]2O[C@H](CO)[C@@H](O)[C@H]2O)c2nc[nH]c(=O)c12 [Jaspamycin] (10 µM)	inactive: 0
Cc1ccc(-c2csc(Cn3nc(CC4OCCCO4)c4ccccc4c3=O)n2)cc1 (10 µM)	inactive: 0
CNC(=O)c1c(C)oc2cc(Oc3ncnc4cc(OC)c(OC)cc34)ccc12 [Fruquintinib] (10 µM)	inactive: 0
O=S(=O)(N=Cc1c(O)ccc2ccccc12)c1cccs1 (10 µM)	inactive: 0
NC(=O)c1cccc2c(N[C@H](CN3CCC3)c3ccc(Cl)c(C(F)(F)F)c3)ncnc12 (10 µM)	inactive: 0
CN1CCC(c2ccccc2CC(C)(C)Nc2nc(N3CCOCC3)nc(-n3c(S(C)(=O)=O)nc4ccccc43)n2)CC1 (10 µM)	inactive: 0
O=c1ccc2cc(O)c(O)cc2o1 [Esculetin] (10 µM)	inactive: 0
O=C(Nc1nc2cccc(-c3ccc(CN4CCS(=O)(=O)CC4)cc3)n2n1)C1CC1 [Filgotinib] (2.5 µM)	inactive: 0
CC(C)(O)c1cc2nc(-c3cnc(N)nc3)nc(N3CCOCC3)c2s1 (2.5 µM)	inactive: 0
Cn1cc(-c2ccc3ncc(Cc4ccc5ncccc5c4)n3n2)cn1 (10 µM)	inactive: 0
CC(=O)c1cc(O)ccc1O [2,5-Dihydroxyacetophenone] (10 µM)	inactive: 0
COc1ccc(COc2cc3oc(=O)c4cc(C(C)O)ccc4c3cc2OC)cc1 (configuration not stated) [Palomid 529] (2.5 µM)	inactive: 0
O=C(CC(c1ccccc1)C(C(=O)O)C(=O)O)c1ccc(C(F)(F)F)cc1 (configuration not stated) (10 µM)	inactive: 0
CC(C)[C@H](CO)Nc1nc(Nc2ccc(C(=O)O)c(Cl)c2)c2ncn(C(C)C)c2n1 [Purvalanol B] (10 µM)	inactive: 0
COc1cc2nccc(Oc3ccc(NC(=O)Nc4ccc(F)cc4F)c(F)c3)c2cc1OC (10 µM)	inactive: 0
N#C/C(=C\c1ccc[nH]1)c1ccc(Cl)c(Cl)c1 (2.5 µM)	inactive: 0
O=c1cc(-c2ccc(O)cc2)oc2cc(O)c(O)c(O)c12 [Scutellarein] (10 µM)	inactive: 0
CC(C)n1nc(C#Cc2ccccc2)c2c(N)ncnc21 (10 µM)	inactive: 0
O=C(N=c1sccn1Cc1ccccc1)c1c[nH]c2ncccc12 (10 µM)	inactive: 0
CC(C)=C/C=C1\O[C@@H]2CC(C)=CC(=O)[C@@H]2[C@]1(C)O [Bisabolangelone] (10 µM)	inactive: 0
COc1ccc(C2CC(c3ccc(Cl)cc3)=NN2c2nc(-c3ccncc3)cs2)cc1 (configuration not stated) [mTOR inhibitor-8] (10 µM)	inactive: 0

Looked up by structure from above, 3 records:
SMILES	kinase-Nluc reporter destabilization hit call
Cc1nc(NC(=O)N2CCC[C@H]2C(N)=O)sc1-c1csc(C(C)(C)C)n1 (10 µM)	inactive: 0
COc1cc2nccc(Oc3ccc(NC(=O)Nc4ccc(F)cc4F)c(F)c3)c2cc1OC (10 µM)	inactive: 0
CC(C)n1nc(C#Cc2ccccc2)c2c(N)ncnc21 (10 µM)	inactive: 0
